In article PMC9815656:
Results are given in words; binding and its absence hold for the method and conditions named. Binding seen in cells or lysates may run through a third protein. A yes stands for co-enrichment or nearness to the bait. Other partners may have been found. No binding means not detected with the bait.

Assays:
[1] = molecular target: CRMPA-TurboID (TGGT1_261080, C-terminal TurboID) (Toxoplasma gondii (RH strain)); assay: proximity labelling; TurboID at the C-terminus of CRMPA or CRMPB; extracellular tachyzoites labelled with biotin 30 min at 37°C; RIPA lysate, streptavidin beads, LC-MS/MS; compared with wild-type (DiCre) tachyzoites; no rapamycin
[2] = molecular target: CRMPB-TurboID (TGGT1_292020, C-terminal TurboID) (Toxoplasma gondii (RH strain)); assay: as above

B1: MIC8 (protein, UniProt Q9BIM7 19-684)
chain: SFLKEMDSIFVSAIRQNVQHTHSALLAKLKEPPDPDDENSWLCRISKKYDACGSREYSDKGLKGTYCPEDFCCSKTACFYGSCGSWCHDNWALCSSSIIYHDEYSYGKCNCKRFQENCDVNAICVHANREDGGAYCQCKEGYWGDGKSCKIDFCQLQPCGAGTCTRTDEGYKCDCPETHKLIVVEDKETCKAKPDFCAEEPCGPPSMVENCVNTDDSYECVCKQGYEVRNGRCEEIDLCADKPCGPDEGVHECVTERQPKLRYRCTCKAGFDLTTLPDGVSQKCLKNFCYEEPCGTRDLVESCKSKAYGYSCLCAAGAMVQVINGKEKCIKADLCRNDPCGPETAVIQCYSHGTSYRCLCKAGYTEVFVNGKSSCQKGDPCTLNMCGGNEAVQECTTDGTAYGCTCKPGYSIAIKHGQKFCNPEEECASHCGSAAAVKSCEILDSGGYQCTCNPGYVMRYSDYVKGCVEGNQCSLNPCGEQEAVQRCIPEGDTYDCECNPGFVKRVLPDGNFICADPASCVGNPCGSSDAVDACIAGTSTYTCRCKDGYTPQSIGSKLQCLPESTDQTDFDSKHKPEDNKGRYSKGTIALVVVGCVALLGIIAGGISYARNRGGERDDEDLAPPPRSTRERRLSSMGEGFENASWASSVSMIPSAPAPPPSGGIWS
binding [1]: no binding | binding [2]: no binding
